# From patent publication US9199959B2, “HIV replication inhibitor” (Shionogi & Co., Ltd., priority 2011, dated 2015)
# The chains behind the UniProt entries cited, without tags or fusion partners.
# UniProt P08684, whole entry: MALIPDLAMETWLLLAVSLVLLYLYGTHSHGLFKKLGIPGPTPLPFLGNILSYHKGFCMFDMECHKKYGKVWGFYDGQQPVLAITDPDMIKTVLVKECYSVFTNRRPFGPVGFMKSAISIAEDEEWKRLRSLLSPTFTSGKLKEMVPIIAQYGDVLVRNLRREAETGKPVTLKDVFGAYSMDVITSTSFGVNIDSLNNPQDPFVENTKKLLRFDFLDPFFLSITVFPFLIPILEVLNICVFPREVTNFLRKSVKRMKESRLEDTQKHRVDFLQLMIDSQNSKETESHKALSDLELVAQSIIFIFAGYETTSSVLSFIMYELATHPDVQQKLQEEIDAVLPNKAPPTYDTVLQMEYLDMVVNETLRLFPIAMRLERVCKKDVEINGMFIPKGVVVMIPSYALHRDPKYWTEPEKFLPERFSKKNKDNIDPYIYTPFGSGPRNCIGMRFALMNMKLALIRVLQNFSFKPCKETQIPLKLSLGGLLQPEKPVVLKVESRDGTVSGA
# Some of these results come from one statement about several compounds together.
# Molecular target: T1, CYP3A4 enzyme (expressed in Escherichia coli) (Homo sapiens, UniProt P08684)
# T1 construct: host or cells: Escherichia coli
# Assay: CYP3A4 fluorescent MBI test
# Type: in vitro ADME
# Conditions: pre-reaction time 0 or 30 minutes, substrate 7-BFC
smiles,measurement,value
Cc1ccc(-c2c(C(OC(C)(C)C)C(=O)O)cc(N(C)C(=O)C(C)C)c(-c3ccc(C)c(C)c3)c2C)cc1C (stereo not shown) [Compound I-9],CYP3A4 fluorescent MBI: difference of IC50 values,(−) (a case where the difference is 3 μM or less was defined as (−))
